At least one compound was matched to its structure with a doubt left.
How the values were obtained:
Format in all cases: cell-based, human
[1] = test system: uPAR mRNA; test: Northern blot analysis of uPAR mRNA in MDA-MB-231 breast carcinoma cells; details: forskolin 10 μM; 24 hours; 20% and 0.5% O2
[2] = test system: uPAR protein; test: Western blot analysis of uPAR protein in MDA-MB-231 breast carcinoma cells; details: forskolin 10 μM; 24 hours; 20% and 0.5% O2
Protocol: Following incubations, the cells were lysed using a buffer containing 40 mM HEPES pH 7.2, 100 mM NaCl, 20% glycerol, 0.1 mM EDTA pH 8.0, 0.2% Triton X-100, 1 mM DTT, and 2 mM PMSF. The lysates were then subjected to homogenization, DNA shearing (10 times with a 25⅝-gauge needle), boiling (5 minutes) and centrifugation (15 minutes, 14000 g). The supernatant was collected and stored at −80° C. until use. The samples were subjected to SDS-polyacrylamide gel electrophoresis (PAGE) and the resolved proteins were transferred to an Immobilon-P membrane using a wet transfer apparatus (Bio-Rad Laboratories, Mississauga, ON). The membranes were blocked overnight at 4° C. in a solution containing 1% PBS, and 0.01% Tween20 (PBS-T) as well as 5% casein. […] Following six additional 5 minute washes with PBS-T, the antigen was detected by enhanced chemiluminescence and the blots were exposed onto Dupont Reflection NEF film.
Following incubation, the cells were lysed using a buffer containing 40 mM HEPES pH 7.2, 100 mM NaCl, 20% glycerol, 0.1 mM EDTA pH 8.0, 0.2% Triton X-100, 1 mM dithiothreitol (DTT), and 2 mM phenylmethyl sulfonyl fluoride (PMSF). […] Following six additional 5-minute washes with PBS-T, the antigen was detected by enhanced chemiluminescence (Amersham Canada Inc., Mississauga, ON) and the blots were exposed onto Dupont Reflection NEF film.

[3] = test system: MDA-MB-231 breast carcinoma cells; test: In vitro Matrigel invasion assay, MDA-MB-231; details: forskolin 10 μM; 20% and 0.5% O2
Protocol: The chambers consist of cell culture inserts, 6.5 mm in diameter and with a 8 μm pore size membrane. Each membrane was coated with 100 μL of a 1 mg/mL solution of Matrigel diluted in cold serum-free culture medium (EX-CELL 300), and allowed to dry in a laminar flow cabinet for approximately 12 hours. The Matrigel was then rehydrated by incubating it with 100 μL of serum-free medium for approximately 1 hour. After rehydration, cell suspensions containing 5.0×10^4 or 1.0×10^5 cells in 100 μL of medium, containing both serum and the nitric oxide treatments, were added to each well. Culture medium containing serum and the respective nitric oxide treatment were then added to each insert. […] Invading cells were then viewed under the microscope at 40× magnification and counted. The invasion index for each treatment was calculated by dividing the number of invading cells by the number of cells which invaded under standard conditions. […]
The chambers consisted of 6.5-mm inserts with 8-μm pore membranes (Corning Costar Corp., Cambridge, Mass.). […] Invading cells were then viewed under the microscope at 40× magnification and counted. The invasion index for each treatment was calculated by dividing the number of invading cells by the number of cells that invaded under standard (20% oxygen) conditions. Invasion indices were expressed as percentages of control (20% oxygen) values. […]

`C=C[C@@]1(C)CC(=O)[C@]2(O)[C@@]3(C)[C@@H](O)CCC(C)(C)[C@@H]3[C@H](O)[C@H](OC(C)=O)[C@@]2(C)O1` [forskolin] was tested, and the “uPAR mRNA expression” value [1] was “inhibited”, the uPAR protein expression [2] was “inhibited” and the “cellular invasion through Matrigel” value [3] was “inhibited cellular invasion”.

Reference: US8168232B2, “Formulations and methods of using nitric oxide mimetics in cancer treatment” (priority 2000, dated 2012)
